Results from patent publication US20120231005A1 (Merck Sharp & Dohme, published 2012).

Tests used:
rhesus PCSK9 (rhesus) [1] = test: affinity measurement, IgG2
rhesus PCSK9 (rhesus) [2] = test: told with the LDL-uptake (Exopolar) assay

- binding (rhesus PCSK9 (rhesus) [1]): binds
B1: AX1DG IgG2 (antibody, V domains shown)
VH: EVQLLESGGGLVQPGGSLRLSCKASGFTFTSYYMHWVRQAPGKGLEWIGRINPDSGSTKYNEKFKGRATISRDNSKNTLYLQMNSLRAEDTAVYYCARGGRLSWDFDVWGQGTLVTVSS
VL: DIQMTQSPSSLSASVGDRVTITCRASQDISRYLAWYQQKPGKAPKLLIYAASSLQSGVPSRFSGSGSGTDFTLTISSLQPEDFATYYCAAYDYSLGGYVFGGGTKVEIK
notes: IgG2; also called AXIDG

- binding (rhesus PCSK9 (rhesus) [2]): binds
B2: AX9 IgG2 (antibody)
heavy: EVQLLESGGGLVQPGGSLRLSCKASGYTFSSYWMHWVRQAPGKGLEWIGRIDPYNGGTKYNEKFKGKATISRDNSKNTLYLQMNSLRAEDTAVYYCARYGYYLGSYAMDYWGQGTLVTVSSASTKGPSVFPLAPCSRSTSESTAALGCLVKDYFPEPVTVSWNSGALTSGVHTFPAVLQSSGLYSLSSVVTVPSSNFGTQTYTCNVDHKPSNTKVDKTVERKCCVECPPCPAPPVAGPSVFLFPPKPKDTLMISRTPEVTCVVVDVSHEDPEVQFNWYVDGVEVHNAKTKPREEQFNSTFRVVSVLTVVHQDWLNGKEYKCKVSNKGLPAPIEKTISKTKGQPREPQVYTLPPSREEMTKNQVSLTCLVKGFYPSDIAVEWESNGQPENNYKTTPPMLDSDGSFFLYSKLTVDKSRWQQGNVFSCSVMHEALHNHYTQKSLSLSPGK
light: DIQMTQSPSSLSASVGDRVTITCRASQDVSKYLAWYQQKPGKAPKLLIYAASSLQSGVPSRFSGSGSGTDFTLTISSLQPEDFATYYCQVYDSSPNAYVFGGGTKVEIKRTVAAPSVFIFPPSDEQLKSGTASVVCLLNNFYPREAKVQWKVDNALQSGNSQESVTEQDSKDSTYSLSSTLTLSKADYEKHKVYACEVTHQGLSSPVTKSFNRGEC

Results are given in words; binding and its absence hold for the method and conditions named. Binding can be weak; no strength is given. Each block holds one binder with its values, some of them ahead of it.
